Data: article PMC9051519

Biological target: T1, FLAG-Cas1 fusion protein (Haloferax volcanii) (UniProt D4GQP0)
T1 sequence: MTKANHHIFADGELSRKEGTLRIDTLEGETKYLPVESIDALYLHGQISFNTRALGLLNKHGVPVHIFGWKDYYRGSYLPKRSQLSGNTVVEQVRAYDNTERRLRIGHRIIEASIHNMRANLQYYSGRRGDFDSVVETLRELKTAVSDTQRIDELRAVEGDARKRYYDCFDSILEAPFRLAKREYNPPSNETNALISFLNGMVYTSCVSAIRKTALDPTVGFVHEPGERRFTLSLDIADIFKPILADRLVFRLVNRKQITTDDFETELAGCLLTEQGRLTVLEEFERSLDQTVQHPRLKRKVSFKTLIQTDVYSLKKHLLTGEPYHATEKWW
Experiment: affinity purification with mass spectrometry; FLAG-Cas1 expressed in H. volcanii Δcas1; S100 lysate treated with DNase and RNase A, 150 mM NaCl; anti-FLAG M2 affinity gel overnight at 4°C, washed with 50 mM Tris/HCl pH 7.4, 150 mM NaCl, eluted with 3xFLAG peptide; gel filtration (Superdex 75 Increase), fractions with Cas1 at about 670 kDa analysed by MS; two FLAG-Cas1 purifications, one FLAG-only control

B1: DNA double-strand break repair ATPase Rad50 (enzyme, UniProt D4GUK1 1-893)
chain: MRFTRIAIRNFKPYEDAELDLRDGVTVIHGVNGSGKSSLLEACFFALYGSKALAGTLEDVVTTGADDAEITLEFVHDGGEYRIDRRVRVSGDRATTAKCVLDGPEGTVEGARDVRRHVASLLRMDAEAFVNCAYVQQGEVNKLINATPSQRQDMIDDLLQLGKLETYRERAGNARLGVEDVLTKKRSVLEDVESQIEAKEDADLHATLNALESELDSLDEEISNYESQRDKAKSALDAAEATLDEHAEKRERLDEIESAIEDLTAKISADETKRDDLSERVRELDAAADELESDIDDALARADLDDASDEAIADAREALSARESELRDDLSEARTRAQAFETQAERLRERADDLESRAEEKREAAEVDAETAAEAERELESFRETRAELRSALDDAEARFEDAPVELGEAADLLEERREARSEARESLAETETELKNARERLAEAERLRDAGKCPECGQPVEGSPHVDAISEREAAVESLEADRESLESAVESRSAAVEAAEALVEVETRASSRRDRLDLVDERIADREETVESRREAAEEKREAAAELDSEAEEKREAATTQAERAEEVAETVDSLESDLDTLDDRRDRLDRVESLVDTRAEKIDARDRLREKRETLAEVNRERREHLRERRERRDELRETVDEEAVEGAKQRKKNAAAYLERVEDEVLPELREKRDDLQSRVGGVEAELEQLDDLRERRDHLAERVDALESVHDEVSTLESTYGDLRAELRQRNVEVLERMLNETFDLVYANDAYSRIRLDGEYGLTVFQKDGTALEPEQLSGGERALFNLSLRCAIYRLLAEGIDGAAPLPPLILDEPTVFLDGGHVSRLVDLVEDMQSRGVKQILIVSHDEDLVGAADDLVRVEKNPTTNRSTVERTDAPIVEGALADD
Q: Which binding does the source give for B1 here?
A: binds

B2: Smc-like protein Sph2; homolog of Rad50 (protein, UniProt A0A8D3W5K5 1-649)
chain: MSSEQVSKSKVHLSVENIGGIDDLSTSFEPGVTVLAGRNATNRTSLLRSIMAAHGSDDVALKGDADEGSVELTIGDEAYTRTFERQGDTVISGGNPVLDDPDLADLFAFLLETNDARQAVARGDDLRDLIMRPVDVESINEQIESLQQEKRDIADELSTLSNLSDRLPQLERRRTKLEDQIEEKEDELAEKEQEVEEYDASVSERQEVESELESKLGDLRSKRRDINDVDRRIETEKQSLDALESEEAELEDDAEDLPEVAGGKIDEIESEISRLRTRRQEIQSTVNELQSVIQFNEEMLSGTSSDVVDALRDADDAGGSVTDQLLGDDQVVCWTCGSEVDKSEIEGTLERLRTLREEKLEDNRDHREQLSELEDEKSTYERRQRERDRIERRLSEIESERETRQERIEELKSDRSDLEAEIDSLEQTVDELESEEHGDLLDLHREANQLEYDLGRLRSDLEDVEDEIADIERKLDERDELEAAREDIEDELEELRTRIKRLESEAVEEFNTHMDDVLDVLEYDNLERIWIERTEKRVREGRRKVTKSVFDLHVIRTNEDGVSYEDSVAHLSESEREVTGLVFALAGYLIHDVYETVPFMVLDSLEAIDSNRISRLVDYFADYADYLTVALLEEDAQAVDSSYPRYSPA
Q: B2 was tested. Which binding did it give?
A: binds

Results are given in words; binding and its absence hold for the method and conditions named. Binding seen in cells or lysates may run through a third protein. These calls come from enrichment with a bait or labelling near it, and not all partners need be listed. Tags and fused reporters may be left off the sequences shown.
